Measurements reported in the supplement of paper PMC10849652.
This is one part of the list.

Sequences of proteins named here, by UniProt entry; tags and fusion partners are left off. A change or cut given only in a name is not applied to a line headed by its entry.
UniProt P51114, whole entry, looked up: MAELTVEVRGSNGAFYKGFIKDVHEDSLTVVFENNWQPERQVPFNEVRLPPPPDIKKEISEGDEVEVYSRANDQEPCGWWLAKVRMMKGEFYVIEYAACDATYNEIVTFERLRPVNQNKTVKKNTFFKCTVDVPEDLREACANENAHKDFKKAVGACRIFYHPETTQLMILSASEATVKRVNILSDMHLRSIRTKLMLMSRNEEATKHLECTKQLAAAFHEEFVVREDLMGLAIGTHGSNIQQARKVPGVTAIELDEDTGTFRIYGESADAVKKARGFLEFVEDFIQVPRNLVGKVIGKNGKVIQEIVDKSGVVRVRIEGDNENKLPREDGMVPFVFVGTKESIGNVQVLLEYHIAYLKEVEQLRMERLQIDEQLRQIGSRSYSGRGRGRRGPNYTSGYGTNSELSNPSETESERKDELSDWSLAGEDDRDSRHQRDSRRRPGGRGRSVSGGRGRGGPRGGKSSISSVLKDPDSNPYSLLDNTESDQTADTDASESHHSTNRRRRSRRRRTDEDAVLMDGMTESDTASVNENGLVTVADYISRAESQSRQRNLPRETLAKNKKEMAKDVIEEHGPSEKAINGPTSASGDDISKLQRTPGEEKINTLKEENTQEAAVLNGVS
UniProt P55789: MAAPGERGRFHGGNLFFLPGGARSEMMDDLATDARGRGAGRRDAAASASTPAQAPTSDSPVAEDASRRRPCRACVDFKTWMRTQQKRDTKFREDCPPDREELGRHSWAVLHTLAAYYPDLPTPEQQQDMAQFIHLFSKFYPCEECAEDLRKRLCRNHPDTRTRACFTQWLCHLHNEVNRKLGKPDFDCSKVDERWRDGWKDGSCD
UniProt Q96RP9: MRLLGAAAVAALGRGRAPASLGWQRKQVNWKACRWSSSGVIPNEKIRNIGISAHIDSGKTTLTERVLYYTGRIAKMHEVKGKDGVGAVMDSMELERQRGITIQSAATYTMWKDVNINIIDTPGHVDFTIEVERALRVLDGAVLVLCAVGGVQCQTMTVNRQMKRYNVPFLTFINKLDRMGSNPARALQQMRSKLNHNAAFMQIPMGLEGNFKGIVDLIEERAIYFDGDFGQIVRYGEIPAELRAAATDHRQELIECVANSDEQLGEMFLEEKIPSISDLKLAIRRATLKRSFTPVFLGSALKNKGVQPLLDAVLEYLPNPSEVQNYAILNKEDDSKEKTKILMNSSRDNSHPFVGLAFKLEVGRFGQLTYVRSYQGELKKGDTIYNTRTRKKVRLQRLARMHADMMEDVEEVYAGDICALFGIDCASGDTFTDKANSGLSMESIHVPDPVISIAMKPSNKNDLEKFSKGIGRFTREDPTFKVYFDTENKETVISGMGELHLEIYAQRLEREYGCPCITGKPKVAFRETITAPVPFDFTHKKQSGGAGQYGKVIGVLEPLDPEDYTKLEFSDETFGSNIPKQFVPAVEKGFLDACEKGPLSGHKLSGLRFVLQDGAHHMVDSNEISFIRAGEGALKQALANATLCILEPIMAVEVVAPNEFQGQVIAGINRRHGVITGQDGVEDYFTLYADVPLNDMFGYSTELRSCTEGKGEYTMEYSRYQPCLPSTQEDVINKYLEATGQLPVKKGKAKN
UniProt P54803: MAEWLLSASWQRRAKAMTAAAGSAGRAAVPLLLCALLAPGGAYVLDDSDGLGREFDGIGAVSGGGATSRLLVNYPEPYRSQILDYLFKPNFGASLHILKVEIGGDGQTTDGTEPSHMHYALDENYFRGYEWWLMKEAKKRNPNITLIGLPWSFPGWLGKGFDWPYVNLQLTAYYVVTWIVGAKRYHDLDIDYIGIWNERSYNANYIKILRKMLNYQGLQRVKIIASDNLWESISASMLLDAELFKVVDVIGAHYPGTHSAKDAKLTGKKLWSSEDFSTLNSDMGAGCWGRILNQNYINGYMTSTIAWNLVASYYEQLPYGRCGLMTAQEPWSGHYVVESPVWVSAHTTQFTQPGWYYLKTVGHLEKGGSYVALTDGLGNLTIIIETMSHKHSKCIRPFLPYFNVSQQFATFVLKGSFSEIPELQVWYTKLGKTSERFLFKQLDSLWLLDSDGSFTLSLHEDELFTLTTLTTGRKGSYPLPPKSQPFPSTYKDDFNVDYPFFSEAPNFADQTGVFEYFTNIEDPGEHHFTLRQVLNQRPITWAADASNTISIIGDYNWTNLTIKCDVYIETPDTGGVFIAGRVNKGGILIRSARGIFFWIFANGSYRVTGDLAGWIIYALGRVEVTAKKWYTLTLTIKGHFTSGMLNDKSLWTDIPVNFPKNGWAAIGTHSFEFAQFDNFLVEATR
UniProt P48507: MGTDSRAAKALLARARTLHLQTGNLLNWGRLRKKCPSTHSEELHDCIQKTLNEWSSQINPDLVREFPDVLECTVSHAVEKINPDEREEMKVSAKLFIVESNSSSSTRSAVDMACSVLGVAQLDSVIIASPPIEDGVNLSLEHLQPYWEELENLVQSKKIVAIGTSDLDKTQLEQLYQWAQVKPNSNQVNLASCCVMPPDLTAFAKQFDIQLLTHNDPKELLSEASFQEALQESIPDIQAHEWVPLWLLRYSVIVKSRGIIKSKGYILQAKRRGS
UniProt Q9H0R8, whole entry, looked up: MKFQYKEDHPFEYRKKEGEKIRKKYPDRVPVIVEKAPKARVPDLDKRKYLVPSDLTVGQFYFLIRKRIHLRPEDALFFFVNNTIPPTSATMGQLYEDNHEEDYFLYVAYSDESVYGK
UniProt P30047: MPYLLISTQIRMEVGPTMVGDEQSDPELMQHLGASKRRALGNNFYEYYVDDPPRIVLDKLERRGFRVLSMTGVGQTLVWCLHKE
UniProt P02794, whole entry, looked up: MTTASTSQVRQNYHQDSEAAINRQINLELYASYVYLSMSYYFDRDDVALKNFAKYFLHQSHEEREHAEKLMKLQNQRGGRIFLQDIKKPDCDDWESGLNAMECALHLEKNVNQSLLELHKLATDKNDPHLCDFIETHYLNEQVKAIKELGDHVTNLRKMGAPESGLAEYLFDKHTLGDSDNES
UniProt Q8NB37: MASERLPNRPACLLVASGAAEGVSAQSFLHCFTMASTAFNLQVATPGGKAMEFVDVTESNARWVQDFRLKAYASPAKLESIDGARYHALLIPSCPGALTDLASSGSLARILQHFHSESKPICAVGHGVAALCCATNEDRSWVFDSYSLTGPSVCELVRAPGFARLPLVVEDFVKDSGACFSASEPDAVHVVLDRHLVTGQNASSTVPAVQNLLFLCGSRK
UniProt Q8WXD5: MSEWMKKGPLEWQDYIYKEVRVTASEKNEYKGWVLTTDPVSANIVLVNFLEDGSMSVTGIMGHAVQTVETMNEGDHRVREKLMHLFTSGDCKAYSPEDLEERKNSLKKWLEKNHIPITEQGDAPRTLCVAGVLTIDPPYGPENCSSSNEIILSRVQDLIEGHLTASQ
UniProt Q7Z7M9: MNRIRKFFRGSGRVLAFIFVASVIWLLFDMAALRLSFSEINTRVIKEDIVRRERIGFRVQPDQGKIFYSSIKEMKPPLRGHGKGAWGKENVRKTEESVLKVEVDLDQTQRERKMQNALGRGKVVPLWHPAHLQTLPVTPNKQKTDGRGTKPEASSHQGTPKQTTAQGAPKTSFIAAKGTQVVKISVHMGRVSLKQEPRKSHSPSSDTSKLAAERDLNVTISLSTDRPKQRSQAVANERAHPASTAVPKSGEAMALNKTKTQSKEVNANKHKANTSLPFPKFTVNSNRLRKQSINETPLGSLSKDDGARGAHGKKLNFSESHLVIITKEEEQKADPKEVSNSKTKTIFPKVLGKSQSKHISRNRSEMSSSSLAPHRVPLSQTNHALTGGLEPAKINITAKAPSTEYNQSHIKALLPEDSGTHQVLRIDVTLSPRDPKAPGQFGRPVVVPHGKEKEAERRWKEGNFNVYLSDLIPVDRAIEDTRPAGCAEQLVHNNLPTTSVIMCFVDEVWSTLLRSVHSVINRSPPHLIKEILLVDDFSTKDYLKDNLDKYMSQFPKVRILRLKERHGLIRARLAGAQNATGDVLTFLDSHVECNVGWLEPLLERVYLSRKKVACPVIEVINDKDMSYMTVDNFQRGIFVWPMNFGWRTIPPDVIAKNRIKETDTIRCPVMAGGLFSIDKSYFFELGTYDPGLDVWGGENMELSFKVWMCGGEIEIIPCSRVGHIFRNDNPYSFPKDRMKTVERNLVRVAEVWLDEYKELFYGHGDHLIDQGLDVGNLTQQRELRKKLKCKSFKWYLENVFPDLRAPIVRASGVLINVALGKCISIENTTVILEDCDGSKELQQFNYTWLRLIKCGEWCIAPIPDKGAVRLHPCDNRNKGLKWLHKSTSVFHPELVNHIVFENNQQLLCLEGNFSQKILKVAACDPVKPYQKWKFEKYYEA
UniProt P0CL80: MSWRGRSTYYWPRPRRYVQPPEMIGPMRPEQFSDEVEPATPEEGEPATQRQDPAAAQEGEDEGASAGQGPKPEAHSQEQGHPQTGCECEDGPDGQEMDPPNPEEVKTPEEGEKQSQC
UniProt Q6NT46: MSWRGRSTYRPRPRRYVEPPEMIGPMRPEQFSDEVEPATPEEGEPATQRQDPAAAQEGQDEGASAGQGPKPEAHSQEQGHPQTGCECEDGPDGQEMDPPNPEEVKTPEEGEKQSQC
UniProt Q92947: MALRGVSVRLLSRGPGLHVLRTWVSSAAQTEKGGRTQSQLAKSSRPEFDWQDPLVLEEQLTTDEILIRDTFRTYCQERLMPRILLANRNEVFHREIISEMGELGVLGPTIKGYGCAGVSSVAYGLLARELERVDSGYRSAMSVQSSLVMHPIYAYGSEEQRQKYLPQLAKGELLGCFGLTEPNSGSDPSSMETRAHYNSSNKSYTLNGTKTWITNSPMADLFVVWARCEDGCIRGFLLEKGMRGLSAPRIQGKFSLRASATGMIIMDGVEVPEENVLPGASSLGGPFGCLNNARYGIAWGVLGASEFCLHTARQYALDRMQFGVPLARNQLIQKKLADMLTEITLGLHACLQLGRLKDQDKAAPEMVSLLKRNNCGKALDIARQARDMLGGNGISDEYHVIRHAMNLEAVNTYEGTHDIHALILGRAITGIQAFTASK
UniProt Q04446: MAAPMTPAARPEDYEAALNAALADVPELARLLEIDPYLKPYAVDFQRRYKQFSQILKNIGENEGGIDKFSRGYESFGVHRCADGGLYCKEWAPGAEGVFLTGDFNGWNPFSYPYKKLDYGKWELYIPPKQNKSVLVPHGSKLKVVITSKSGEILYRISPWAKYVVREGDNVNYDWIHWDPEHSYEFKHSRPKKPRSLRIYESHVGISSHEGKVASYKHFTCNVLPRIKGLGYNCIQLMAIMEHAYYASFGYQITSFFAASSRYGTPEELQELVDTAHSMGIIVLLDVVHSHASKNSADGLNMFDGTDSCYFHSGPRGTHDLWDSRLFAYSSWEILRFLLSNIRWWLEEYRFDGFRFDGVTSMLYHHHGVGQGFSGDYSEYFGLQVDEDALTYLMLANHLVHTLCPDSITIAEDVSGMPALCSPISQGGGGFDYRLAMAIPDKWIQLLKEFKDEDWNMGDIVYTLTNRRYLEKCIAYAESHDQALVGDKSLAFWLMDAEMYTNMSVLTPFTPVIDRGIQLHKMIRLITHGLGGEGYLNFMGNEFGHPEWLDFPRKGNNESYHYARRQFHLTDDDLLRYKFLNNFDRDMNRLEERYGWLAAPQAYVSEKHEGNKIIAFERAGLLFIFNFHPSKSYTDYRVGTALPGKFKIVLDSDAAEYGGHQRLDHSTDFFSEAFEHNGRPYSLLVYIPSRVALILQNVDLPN
UniProt P31150: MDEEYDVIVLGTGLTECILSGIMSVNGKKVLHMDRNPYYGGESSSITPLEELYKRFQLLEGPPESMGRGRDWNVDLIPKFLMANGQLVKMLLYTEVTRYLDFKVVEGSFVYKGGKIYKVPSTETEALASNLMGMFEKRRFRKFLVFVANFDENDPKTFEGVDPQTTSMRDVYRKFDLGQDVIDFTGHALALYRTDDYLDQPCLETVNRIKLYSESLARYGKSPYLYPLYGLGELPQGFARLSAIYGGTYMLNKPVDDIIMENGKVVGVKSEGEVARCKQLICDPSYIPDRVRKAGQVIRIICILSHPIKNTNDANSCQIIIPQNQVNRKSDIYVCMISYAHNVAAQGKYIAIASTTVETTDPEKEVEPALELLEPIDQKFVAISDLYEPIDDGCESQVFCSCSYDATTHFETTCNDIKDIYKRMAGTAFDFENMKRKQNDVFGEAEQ

How the values were obtained:
Experiment in all cases: log2 fold change, soluble protein after heating vs DMSO (PISA); higher = thermal stabilisation; K562 lysate, 10 uM; active = over 0.2 and 3.5 SD of the protein, either way, in both replicates (recomputed)
[1] = compound: CN1CC[C@H](c2c(O)cc(O)c3c(=O)cc(-c4ccccc4Cl)oc23)[C@H](O)C1 [alvocidib]
Procedure, shortened: (§1)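 K562 pellets were dounce-homogenised in PBS pH 7.4 with 1 mM MgCl2, and the crude extract at 1 mg/mL protein was treated with 10 μM compound for 30 min. Aliquots were heated for 3 min across 48°C-58°C, pooled, and brought to 0.5% NP-40 at 4°C; soluble protein was the supernatant after 21,000xg for 90 min. Soluble protein was quantified by TMTpro 16plex LC-MS/MS with channel sums equalised, and reported as log2 fold change in thermal stability against DMSO controls, with values from duplicates.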

[2] = compound: CN1CCc2c(c3ccccc3n2Cc2ccc(C(=O)NO)cc2)C1 [Tubastatin A]
Procedure, shortened: as §1

[3] = compound: CNC(=O)C1=CC=CC=C1NC2=NC(=NC=C2Cl)NC3=C(C=C(C=C3)N4CCOCC4)OC
Procedure, shortened: as §1

[4] = compound: CNC(=O)c1ccc(Nc2ncc(C(F)(F)F)c(NCc3nccnc3N(C)S(C)(=O)=O)n2)cc1 [defactinib]
Procedure, shortened: as §1

[5] = compound: CNc1nc(-c2ccc3c(N)n[nH]c3c2)cc(N2C[C@@H](C(=O)NC3CCCCC3)CC[C@H]2C)n1
Procedure, shortened: as §1

[6] = compound: COC(=O)N[C@@H](C)CNc1nccc(-c2cn(C(C)C)nc2-c2cc(Cl)cc(NS(C)(=O)=O)c2F)n1 [encorafenib]
Procedure, shortened: as §1

[7] = compound: COC(=O)[C@H](CCSC)NC(=O)C1=C(C=C(C=C1)NC[C@H](CS)N)C2=CC=CC=C2
Procedure, shortened: as §1

[8] = compound: COc1cc(Nc2ncc3c(n2)-c2ccc(Cl)cc2C(c2c(F)cccc2OC)=NC3)ccc1C(=O)O [alisertib]
Procedure, shortened: as §1

[9] = compound: COc1cc2nc(-c3cc(F)ccc3O)nc(N[C@@H]3CNC[C@H]3C(C)(C)O)c2cc1OC
Procedure, shortened: as §1

[10] = compound: COc1cc2ncnc(Nc3ccc(F)c(Cl)c3)c2cc1OCCCN1CCOCC1 [gefitinib]
Procedure, shortened: as §1

[11] = compound: CS(=O)(=O)CCNCc1ccc(-c2ccc3ncnc(Nc4ccc(OCc5cccc(F)c5)c(Cl)c4)c3c2)o1 [lapatinib]
Procedure, shortened: as §1

[12] = compound: CS(=O)(=O)N1CCN(Cc2cc3nc(-c4cccc5[nH]ncc45)nc(N4CCOCC4)c3s2)CC1 [pictilisib]
Procedure, shortened: as §1

[13] = compound: C[C@@H](Oc1cc(-c2cnn(C3CCNCC3)c2)cnc1N)c1c(Cl)ccc(F)c1Cl [crizotinib]
Procedure, shortened: as §1

[14] = compound: C[C@H](C1=CC=C(C=C1)C(=O)NC2=C3C=CNC3=NC=C2)N
Procedure, shortened: as §1

[15] = compound: C[C@H](Nc1ncnc2nc[nH]c12)c1cc2cccc(Cl)c2c(=O)n1-c1ccccc1 [duvelisib]
Procedure, shortened: as §1

[16] = compound: Cc1cc(Nc2cc(CN3CCOCC3)c3nc(C)c(Cc4ccc(Cl)cc4F)n3n2)n[nH]1 [gandotinib]
Procedure, shortened: as §1

[17] = compound: Cc1cc(Nc2cc(N3CCN(C)CC3)nc(Sc3ccc(NC(=O)C4CC4)cc3)n2)n[nH]1 [tozasertib]
Procedure, shortened: as §1

[18] = compound: Cc1ccc(-n2nc(C(C)(C)C)cc2NC(=O)Nc2ccc(OCCN3CCOCC3)c3ccccc23)cc1 [doramapimod]
Procedure, shortened: as §1

[19] = compound: Cc1ccc(NC(=O)c2ccc(CN3CC[C@H](N(C)C)C3)c(C(F)(F)F)c2)cc1Nc1nccc(-c2cncnc2)n1 [bafetinib]
Procedure, shortened: as §1

[20] = compound: Cc1cccc(CC(=O)N2CCc3c2ccc(-c2cn(C)c4ncnc(N)c24)c3F)n1
Procedure, shortened: as §1

Measured: log2 fold change

FXR1 (UniProt P51114)
inactive: [1] -0.028 | [2] -0.176 | [3] 0.02 | [4] -0.043 | [5] -0.039 | [6] 0.057 | [7] 0.035 | [8] -0.012 | [9] 0.012 | [10] -0.022 | [11] -0.026 | [12] -0.052 | [13] -0.006 | [14] -0.106 | [15] 0.023 | [16] -0.02 | [17] 0.008 | [18] 0.065 | [19] -0.03 | [20] 0.05

GFER (UniProt P55789)
inactive: [1] -0.008 | [2] 0.068 | [3] -0.152 | [4] 0.086 | [5] -0.04 | [6] 0.036 | [7] -0.073 | [8] 0.101 | [9] 0.003 | [10] 0 | [11] -0.025 | [12] -0.025 | [13] -0.008 | [14] 0.072 | [15] -0.087 | [16] -0.006 | [17] 0.058 | [18] 0.015 | [19] -0.065 | [20] -0.059

GFM1 (UniProt Q96RP9)
inactive: [1] 0.009 | [2] -0.031 | [3] 0.011 | [4] 0.008 | [5] 0.004 | [6] -0.049 | [7] 0.147 | [8] 0.008 | [9] -0.015 | [10] -0.009 | [11] 0.007 | [12] -0.015 | [13] -0.041 | [14] -0.018 | [15] -0.052 | [16] 0.003 | [17] 0.029 | [18] 0.023 | [19] -0.032 | [20] 0.006

GALC (UniProt P54803)
inactive: [1] -0.002 | [2] -0.024 | [3] -0.017 | [4] 0.034 | [5] 0.051 | [6] 0.031 | [7] 0.015 | [8] 0 | [9] 0.039 | [10] -0.008 | [11] 0.041 | [12] 0.016 | [13] -0.062 | [14] -0.179 | [15] 0.04 | [16] 0.024 | [17] -0.006 | [18] 0.103 | [19] -0.048 | [20] 0.041

GCLM (UniProt P48507)
inactive: [1] 0.028 | [2] -0.049 | [3] 0.003 | [4] 0.003 | [5] -0.038 | [6] -0.003 | [7] -0.004 | [8] 0.05 | [9] 0.002 | [10] -0.023 | [11] -0.006 | [12] -0.013 | [13] 0.018 | [14] -0.009 | [15] 0.016 | [16] -0.004 | [17] -0.017 | [18] 0.001 | [19] 0.003 | [20] -0.03

GABARAPL1 isoform 2 (UniProt Q9H0R8)
inactive: [1] 0.011 | [2] 0.057 | [3] -0.03 | [4] -0.119 | [5] 0.096 | [6] -0.055 | [7] -0.005 | [8] 0.015 | [9] 0.002 | [10] -0.006 | [11] -0.01 | [12] 0.167 | [13] -0.011 | [14] 0.02 | [15] 0.01 | [16] 0.017 | [17] 0.026 | [18] 0.089 | [19] 0.143 | [20] -0.078

GCHFR (UniProt P30047)
inactive: [1] -0.047 | [2] 0.168 | [3] -0.043 | [4] -0.025 | [5] 0.167 | [6] -0.033 | [7] 0.021 | [8] -0.041 | [9] 0.033 | [10] 0.027 | [11] -0.012 | [12] -0.023 | [13] -0.095 | [14] -0.029 | [15] -0.012 | [16] 0.112 | [17] 0.037 | [18] 0.024 | [19] 0.03 | [20] 0.032

FTH1 (UniProt P02794)
inactive: [1] 0.026 | [2] -0.004 | [3] 0.011 | [4] 0.03 | [5] -0.024 | [6] 0.015 | [7] -0.049 | [8] -0.034 | [9] -0.009 | [10] 0.01 | [11] -0.004 | [12] -0.01 | [13] 0.005 | [14] -0.005 | [15] 0.044 | [16] -0.003 | [17] 0.031 | [18] 0.009 | [19] -0.088 | [20] -0.009

GATD1 (UniProt Q8NB37)
inactive: [1] -0.03 | [2] 0.077 | [3] -0.084 | [4] -0.036 | [5] -0.05 | [6] 0.018 | [7] -0.015 | [8] -0.006 | [9] -0.033 | [10] -0.004 | [11] -0.074 | [12] -0.007 | [13] -0.068 | [14] -0.115 | [15] 0.025 | [16] 0.041 | [17] -0.015 | [18] 0.01 | [19] -0.006 | [20] 0.062

GEMIN6 (UniProt Q8WXD5)
inactive: [1] -0.06 | [2] -0.018 | [3] -0.011 | [4] -0.047 | [5] 0.092 | [6] -0.008 | [7] -0.175 | [8] -0.027 | [9] 0.004 | [10] 0.004 | [11] -0.042 | [12] 0.002 | [13] 0.071 | [14] -0.094 | [15] -0.011 | [16] 0.082 | [17] -0.082 | [18] -0.045 | [19] -0.01 | [20] 0.051

GALNT5 (UniProt Q7Z7M9)
inactive: [1] -0.011 | [2] 0.044 | [3] 0.01 | [4] 0.015 | [5] -0.045 | [6] 0.041 | [7] -0.018 | [8] 0.025 | [9] -0.026 | [10] 0.008 | [11] -0.034 | [12] -0.027 | [13] 0.01 | [14] -0.018 | [15] -0.046 | [16] 0.025 | [17] 0.028 | [18] 0.003 | [19] 0.015 | [20] 0.066

Pulled one by one from the entries so far, two records:
GEMIN6 (UniProt Q8WXD5)
inactive: [1] -0.06 | [2] -0.018 | [3] -0.011 | [4] -0.047 | [5] 0.092 | [6] -0.008 | [7] -0.175 | [8] -0.027 | [9] 0.004 | [10] 0.004 | [11] -0.042 | [12] 0.002 | [13] 0.071 | [14] -0.094 | [15] -0.011 | [16] 0.082 | [17] -0.082 | [18] -0.045 | [19] -0.01 | [20] 0.051

GATD1 (UniProt Q8NB37)
inactive: [1] -0.03 | [2] 0.077 | [3] -0.084 | [4] -0.036 | [5] -0.05 | [6] 0.018 | [7] -0.015 | [8] -0.006 | [9] -0.033 | [10] -0.004 | [11] -0.074 | [12] -0.007 | [13] -0.068 | [14] -0.115 | [15] 0.025 | [16] 0.041 | [17] -0.015 | [18] 0.01 | [19] -0.006 | [20] 0.062

More results.

GAGE12F (UniProt P0CL80)
inactive: [1] 0.066 | [2] 0.081 | [3] 0.082 | [4] 0.145 | [5] 0.062 | [6] 0.037 | [7] -0.207 | [8] 0.072 | [9] 0 | [10] -0.054 | [11] 0.065 | [12] -0.03 | [13] 0.01 | [14] 0.024 | [15] 0.056 | [16] -0.11 | [17] -0.045 | [18] -0.012 | [19] 0.032 | [20] -0.092

GAGE2A (UniProt Q6NT46)
inactive: [1] 0.012 | [2] 0.03 | [3] 0.028 | [4] 0.07 | [5] 0.062 | [6] -0.013 | [7] -0.081 | [8] 0.018 | [9] -0.017 | [10] -0.02 | [11] 0.027 | [12] -0.091 | [13] -0.03 | [14] 0.017 | [15] 0.001 | [16] -0.007 | [17] -0.029 | [18] 0.025 | [19] -0.018 | [20] -0.022

GCDH (UniProt Q92947)
inactive: [1] 0.018 | [2] -0.069 | [3] -0.049 | [4] 0.004 | [5] 0.057 | [6] -0.049 | [7] 0.159 | [8] 0.049 | [9] 0.006 | [10] -0.004 | [11] 0.016 | [12] 0.012 | [13] -0.017 | [14] 0.013 | [15] 0.19 | [16] -0.005 | [17] 0.007 | [18] -0.026 | [19] 0.047 | [20] -0.004

GBE1 (UniProt Q04446)
inactive: [1] 0.006 | [2] -0.013 | [3] -0.012 | [4] -0.045 | [5] 0.022 | [6] 0.043 | [7] 0.009 | [8] 0.013 | [9] 0.009 | [10] 0.071 | [11] 0.001 | [12] -0.035 | [13] -0.047 | [14] 0.058 | [15] -0.028 | [16] -0.118 | [17] 0.041 | [18] 0.018 | [19] -0.03 | [20] -0.022

GDI1 (UniProt P31150)
inactive: [1] -0.013 | [2] 0.014 | [3] -0.034 | [4] 0.004 | [5] -0.021 | [6] -0.017 | [7] 0.002 | [8] 0.005 | [9] 0.006 | [10] 0.001 | [11] 0.001 | [12] -0.016 | [13] 0.016 | [14] 0.076 | [15] 0.005 | [16] -0.05 | [17] -0.01 | [18] 0.004 | [19] 0.011 | [20] -0.027
